# Measured values published in paper PMC12040169 (PLOS Biology, 2025).
# The other results are listed elsewhere or left out.
# System: T1, CTL2-GFP (C. trachomatis L2/434/Bu, GFP-expressing)
# T1 construct: L2/434/Bu, GFP-expressing
# Design: species or system HeLa; Intracellular C. trachomatis growth in HeLa cells, bulk GFP fluorescence relative to DMSO
# Conditions: bulk GFP, single well; 28.5 h, 10 µM; inhibitor
row,SMILES,% of control remaining
1,CN(CC(=O)O)S(=O)(=O)c1ccc(F)c2ccccc12 [CBK268447],139.473%
2,O=C(O)CCc1ccc(-c2ccccc2)n1CC1CCCO1 (stereo not drawn) [CBK267955],96.9146%
3,CCN1C(=O)CC(C(=O)O)S/C1=N\c1ccc(OC)cc1 (stereo not drawn) [CBK287266],135.696%
4,Cc1c(C(=O)N2CCC[C@@H]2CO)nnn1Cc1ccc(F)cc1F [CBK304071],133.657%
5,CCC(CN1CCOCC1)NC(=O)Cc1coc2cc(C)c(C)cc12 (stereo not drawn) [CBK282811],120.607%
6,Cc1ccc(-c2cc(CC3(C(=O)N(C)C)CCCN(C)C3)on2)cc1 (stereo not drawn) [CBK281695],119.939%
7,CC(=O)c1sc(NC(=O)c2ccc(N3C(=O)CCC3=O)cc2)nc1C [CBK287334],132.314%
8,CCN(CC)CCn1c(=N)n(CC(=O)c2cccs2)c2ccccc21 [CBK278240B],100%
9,CC(NS(=O)(=O)c1cccs1)c1ccccc1 (stereo not drawn) [CBK043601],106.954%
10,Cc1[nH]c2ccccc2c1Cc1n[nH]c(=S)n1Cc1ccccc1 [CBK266985],107.712%
11,O=C(NCc1cccs1)c1ccc2nc[nH]c2c1 [CBK153320],118.972%
12,CC(=O)c1ccc(-c2cc(F)cc3c2OC(CN)C3)s1 (stereo not drawn) [CBK307513],67.7229%
13,c1nc(OC2CCOC2)cc(N2CCCC2)n1 (stereo not drawn) [CBK115899],128.388%
14,CCOC(=O)CN1C(=O)S/C(=C/c2cc(C)n(-c3cc(C)ccn3)c2C)C1=O [CBK264731],117.182%
15,CC(=O)N1CCC2(CCCC[C@H]3CN(C(C)C)CC[C@@H]3NC(=O)CNC2=O)CC1 [CBK292133],111.251%
16,O=C(N[C@@H]1CNCCC[C@H]1O)c1ccc(OCCN2CCCC2)cc1 [CBK289070],123.17%
17,C[C@@H](Nc1nc(-c2ccco2)cnc1N)c1ccccc1 [CBK063737],195.648%
18,Cc1cccc(-c2csc3c(=O)[nH]c(N4CCC(C(=O)NCCc5cccnc5)CC4)nc23)c1 [CBK215627],136.827%
19,COc1ccc([C@]23CN(C)C[C@H]2CCN(C(=O)Nc2ccc(Cl)c(F)c2)C3)cc1OC [CBK081140T],118.991%
20,COc1ccc(OCc2ncc(C(C)(C)C)o2)c(C(C)=O)c1 [CBK305079],105.062%
21,CC(=O)c1ccc(NC(=O)NC[C@H]2C[C@@H]3CC[N@]2C[C@@H]3CN2CCCCC2)cc1 [CBK288766],125.903%
22,COCC1CCCN1C(=O)c1cnn2c(C)c(Cc3ccccc3)c(C)nc12 (stereo not drawn) [CBK162213],120.617%
23,Cc1cccc(OCCNC(=O)CN2CCCC2Cn2cncn2)c1 (stereo not drawn) [CBK305345],97.7822%
24,CS(=O)(=O)c1sc(C(=O)NC(=S)Nc2cccc(C(F)(F)F)c2)c2c1C=CCC2 [CBK005654],105.269%
25,CCCn1cc(NC(=O)C2(c3ccccc3)CCOCC2)ccc1=O [CBK304905],84.0195%
26,CCn1cc(NC(=O)CC2CCN(Cc3cccc(C(F)(F)F)c3)CC2)cn1 [CBK286118],100.806%

row,SMILES,% of control remaining
1,O=C(O)C[C@]1(C(=O)NC2CCCCCC2)CC(/C=C/c2ccccc2)=NO1 [CBK286732],136.6%
2,Cc1cccc(CCNC(=O)N2CCN(Cc3ccccn3)CC2)c1 [CBK304057],102.802%
3,Cc1cccc(-c2csc3c(=O)[nH]c(N4CCC(C(=O)NCc5ccncc5)CC4)nc23)c1 [CBK215625],110.283%
4,Cc1c(CC(=O)O)c2c(n1Cc1ccc(F)cc1)CCCC2=O [CBK287078],109.129%
5,O=C(O)C[C@@H]1CCN(C(=O)C2CCCCC2)C[C@@H]1CCN1CCCCC1 [CBK288781],136.044%
6,COc1ccc(OC)c(C(C)NC(=O)C2CCN(Cc3cccc(C(F)(F)F)c3)CC2)c1 (stereo not drawn) [CBK148764],167.565%
7,COC(=O)[C@@H](C)NC(=O)[C@@H]1CN(C(=O)NC(C)C)CCN1C(=O)C1CCCCC1 [CBK289622],123.246%
8,CCOc1cccc(-c2cn3ccnc3c(Nc3ccc(Cl)cc3)n2)c1 [CBK066505],136.598%
9,CC(Cn1cncn1)C(=O)N1CCCCC1CCc1ccccc1 (stereo not drawn) [CBK282265],108.104%
10,Cc1cc(C)nc(SCC(=O)N2c3ccccc3C(C)(c3ccc(Cl)cc3)CC2(C)C)n1 (stereo not drawn) [CBK073872],25.4166%
11,CC(=O)Nc1ccc(NCc2ncc(C(C)(C)C)o2)c(Cl)c1 [CBK306135],119.489%
12,CSCCOc1cc(NC(C)C)ncn1 [CBK115889],86.7619%
13,COc1ccc(NC(=O)Cn2cnc3c2c(=O)n(C)c(=O)n3C)cc1Cl [CBK134216],83.1263%
14,COc1cnc(-c2cc(Cl)cc(Cl)c2)c(NC(=O)c2ccsc2)n1 [CBK145340],186.91%
15,O=c1c(-c2ccccc2)c(O)cc(-c2ccccc2)n1Cc1ccccc1 [CBK291188],127.8%
16,Cc1[nH]c2cccc(C(=O)N3CCOC(C)(C(=O)NC4CCCC4)C3)c2c1C (stereo not drawn) [CBK285800],135.01%
17,CC1=CCC2C(=O)N(c3ccccc3)C(=O)C2C1 (stereo not drawn) [CBK086490],127.623%
18,CCc1onc(C)c1C(=O)N1CCN(C2CCNC2)CC1 (stereo not drawn) [CBK304258],160.122%
19,C=C(C)Cn1c(SCC(C)C)nnc1-c1ccc(O)nc1 [CBK200094],118.826%
20,Cc1cc(C[C@@H]2COC[C@H]2NCC(C)c2ccccc2)on1 (stereo partly drawn) [CBK285145],106.25%
21,O=C(Cc1ccc(-c2ccccc2)cc1)NCc1cccnc1 [CBK262591],111.822%
22,COc1ccc(NC(=O)c2ccc3c(c2)C(=O)N(Cc2ccncc2)C3=O)cc1 [CBK269660],137.24%
23,Cc1ncccc1COC(=O)Nc1cnc2ccccc2c1 [CBK200128],77.0305%
24,Cc1ccc(NC(C(N)=O)c2c(C)[nH]c(=O)[nH]c2=O)cc1 (stereo not drawn) [CBK111355],119.337%
25,Cc1cnc(NCC2(CO)CCOCC2)nc1N(C)C [CBK307026],96.152%
26,Cc1ccc(Oc2ccc(C(F)(F)F)cc2[N+](=O)[O-])c(Br)c1 [CBK002817],146.941%

# Some of these compounds in order of count of non-hydrogen atoms, smallest number first.
row,SMILES,% of control remaining
11,O=C(NCc1cccs1)c1ccc2nc[nH]c2c1 [CBK153320],118.972%
12,CC(=O)c1ccc(-c2cc(F)cc3c2OC(CN)C3)s1 (stereo not drawn) [CBK307513],67.7229%
4,Cc1c(CC(=O)O)c2c(n1Cc1ccc(F)cc1)CCCC2=O [CBK287078],109.129%
16,O=C(N[C@@H]1CNCCC[C@H]1O)c1ccc(OCCN2CCCC2)cc1 [CBK289070],123.17%
8,CCOc1cccc(-c2cn3ccnc3c(Nc3ccc(Cl)cc3)n2)c1 [CBK066505],136.598%
16,Cc1[nH]c2cccc(C(=O)N3CCOC(C)(C(=O)NC4CCCC4)C3)c2c1C (stereo not drawn) [CBK285800],135.01%

# The list goes on.

row,SMILES,% of control remaining
1,C=CCN1CCC(C(=O)NC(C)c2ccc(OC)c(OC)c2)CC1 (stereo not drawn) [CBK148924],95.2162%
2,O=C(CCSc1ccccc1)Nc1ccc(Br)cc1F [CBK266825],116.25%
3,Cc1noc(C2=CC=CN3C2=NNC32CCNCC2)n1 [CBK288058],126.499%
4,COc1cccc(NC(=O)N2CCN3C(=O)[C@H](Cc4ccc(O)cc4)NC(=O)[C@@H]3C2)c1 [CBK289618],136.163%
5,Cn1cnc([N+](=O)[O-])c1Oc1cccc(C(F)(F)F)c1 [CBK002790],58.9276%
6,CC(=O)N1CCc2sccc2C1c1ccc(NC(=O)c2ccccc2F)cc1 (stereo not drawn) [CBK286433],111.021%
7,O=C(O)c1ccccc1-n1c(=O)c2cc3c(=O)n(-c4ccccc4C(=O)O)c(=O)c3cc2c1=O [CBK261097],100%
8,Cc1cc2c(cc3c(=O)n(CC(=O)N4CCCCC4)nc(C)n32)o1 [CBK283630],135.974%
9,O=C(NCc1ccc(Cl)c(Cl)c1)c1cnoc1-c1ccccc1Cl [CBK154942],92.7566%
10,N#CCc1ccc(Nc2cc(-c3cccc(N)c3)ncn2)cc1 [CBK091187],134.9%
11,NC(=O)CCn1c(=S)n(CCC(N)=O)c2ccccc21 [CBK262301],112.809%
12,Nc1ncc(-c2ccc(O)cc2)nc1N1CCC[C@@H]1CO [CBK063669],167.469%
13,O=C1NCC2(C/C=C/CCOc3ccccc31)CCN(C(=O)CCN1CCCC1)CC2 [CBK292020],125.092%
14,Cc1[nH]nc(-c2ccc(OCc3cnn(-c4ccccc4)c3)cc2O)c1Oc1ccc(Cl)cc1 [CBK264939],100%
15,COC(=O)c1ccc2c(=O)n(CC(C)O)c(SC)nc2c1 (stereo not drawn) [CBK305018],136.03%
16,CC1CCc2c(sc(NC(=O)c3cc(-c4ccccn4)nc4c(Cl)cccc34)c2C(N)=O)C1 (stereo not drawn) [CBK267744],154.76%
17,COCCn1c(CO)nnc1[C@H]1C[C@@H](NC(=O)c2ccc(F)cc2C)C1 [CBK306856],142.637%
18,CC(C)(C)S(=O)(=O)c1ccc2nc3c(n2c1)CCCC3 [CBK006753],105.265%
19,CCCN(C)Cc1ccc(-c2cn(CC(=O)NCc3ccc(C(F)(F)F)cc3)nn2)cc1 [CBK164719],125.624%
20,CCCC(=O)c1ccc(S(=O)(=O)N2CCN(Cc3ccc(F)c(C(F)(F)F)c3)CC2)cc1 [CBK063162],112.538%
21,O=C(COc1ccc(S(=O)(=O)N2CCOCC2)cc1)N1CCc2ccccc2C1 [CBK268350],129.452%
22,Cc1ccc2c(c1)nc(CNC(=O)NCc1ccnc(C)n1)n2C [CBK304292],87.8987%
23,Cc1ccccc1-n1ncc2c1NC(=O)N1CCCN=C21 [CBK284409],100.32%
24,CC(C)(C)c1cn(C[C@H]2CC3CCN2C[C@@H]3C(=O)NC2CCCCC2)nn1 (stereo partly drawn) [CBK289085],146.476%
25,Cc1ccccc1C(=O)NCC(=O)Nc1ccc(Br)c2ccccc12 [CBK091343],78.0295%
26,O=C(CN1CCOCC1)N1CCN(C(=O)c2ccco2)CC1 [CBK144478],108.941%
